Experimental data: article PMC11653675
No constants are given. Whether binding was seen depends on the method and setting. In cells and extracts the contact can be indirect. A yes stands for co-enrichment or nearness to the bait. Other partners may have been found. Where a sequence is shown, tags or fusion partners need not be part of it.

Target: TET1CD-Flag (TET1 catalytic structural domain, Flag-tagged) (human)
Experiment: affinity purification with mass spectrometry; anti-Flag immunoprecipitation from cells stably transfected with TET1CD-Flag (TFK-1 by the results, HEK293T by the methods), control-vector cells as control; SDS-PAGE, HPLC-MS/MS (Q Exactive HF-X)

B1: PPM1G (endogenous, found by HPLC-MS/MS in the TET1CD-Flag immunoprecipitate) (enzyme, UniProt O15355 1-546)
chain: MGAYLSQPNTVKCSGDGVGAPRLPLPYGFSAMQGWRVSMEDAHNCIPELDSETAMFSVYDGHGGEEVALYCAKYLPDIIKDQKAYKEGKLQKALEDAFLAIDAKLTTEEVIKELAQIAGRPTEDEDEKEKVADEDDVDNEEAALLHEEATMTIEELLTRYGQNCHKGPPHSKSGGGTGEEPGSQGLNGEAGPEDSTRETPSQENGPTAKAYTGFSSNSERGTEAGQVGEPGIPTGEAGPSCSSASDKLPRVAKSKFFEDSEDESDEAEEEEEDSEECSEEEDGYSSEEAENEEDEDDTEEAEEDDEEEEEEMMVPGMEGKEEPGSDSGTTAVVALIRGKQLIVANAGDSRCVVSEAGKALDMSYDHKPEDEVELARIKNAGGKVTMDGRVNGGLNLSRAIGDHFYKRNKNLPPEEQMISALPDIKVLTLTDDHEFMVIACDGIWNVMSSQEVVDFIQSKISQRDENGELRLLSSIVEELLDQCLAPDTSGDGTGCDNMTCIIICFKPRNTAELQPESGKRKLEEVLSTEGAEENGNSDKKKKAKRD
**Q.** How did the binding turn out when B1 was run?
**A.** The binding was “binds”.
